Experimental data published in publication doi:10.1101/2019.12.17.877662.

Amino acid sequences for entries named in this document (tags omitted).
UniProt Q5SHY0, whole entry G169C: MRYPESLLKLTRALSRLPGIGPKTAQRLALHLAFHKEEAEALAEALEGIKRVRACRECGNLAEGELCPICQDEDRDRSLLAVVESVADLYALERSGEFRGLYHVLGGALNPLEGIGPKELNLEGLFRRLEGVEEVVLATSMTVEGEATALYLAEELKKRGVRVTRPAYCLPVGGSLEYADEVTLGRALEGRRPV

Assays:
[1] = target: TtRecR (Thermus thermophilus) (UniProt Q5SHY0); experiment: BLI; details: ssDNA pre-coated with TtSSB, negligible association
[2] = target: T1, TtRecF (Thermus thermophilus) (UniProt Q5SLM9); experiment: BLI; details: no RecR
T1 sequence (looked up, limits assumed): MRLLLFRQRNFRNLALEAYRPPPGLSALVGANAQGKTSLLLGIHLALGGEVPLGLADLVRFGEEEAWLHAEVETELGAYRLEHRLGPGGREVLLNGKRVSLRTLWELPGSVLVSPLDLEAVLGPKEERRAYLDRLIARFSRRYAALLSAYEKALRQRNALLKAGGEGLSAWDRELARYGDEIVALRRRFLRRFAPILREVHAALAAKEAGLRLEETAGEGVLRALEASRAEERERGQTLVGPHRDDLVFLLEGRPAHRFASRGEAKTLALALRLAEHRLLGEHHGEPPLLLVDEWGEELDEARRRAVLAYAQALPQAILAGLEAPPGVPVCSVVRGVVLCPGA

TtRecO + TtRecR [3] = experiment: BLI; details: 250 nM RecO with 500 nM RecR
TtSSB + TtRecO + TtRecR = experiment: BLI; details: RecO and RecR added to TtSSB-coated ssDNA
TtRecO + TtRecR G169C [4] = experiment: BLI; details: 250 nM RecO with 500 nM RecR G169C, smaller shift than with wild-type RecR
TtSSB + TtRecO = experiment: BLI; details: RecO added to TtSSB-coated ssDNA
TtRecF + TtRecR = experiment: BLI
[5] = target: TtRecR G169C (Thermus thermophilus) (UniProt Q5SHY0); experiment: BLI; details: ssDNA pre-coated with TtSSB, negligible association
[6] = system: TtRecO (Thermus thermophilus); experiment: EMSA; details: no band shift
TtRecO + TtRecR [7] = experiment: EMSA
TtRecO + TtRecR G169C [8] = experiment: EMSA; details: shift missing

Sequence | binding result [1] | binding result [2] | binding result (TtRecO + TtRecR [3]) | binding result (TtSSB + TtRecO + TtRecR) | binding result (TtRecO + TtRecR G169C [4]) | binding result (TtSSB + TtRecO) | binding result (TtRecF + TtRecR; slight shift, negligible affinity compared to RecOR) | binding result (TtRecF + TtRecR; ssDNA pre-coated with TtSSB, negligible association) | binding result [5] | binding result [6] | binding result (TtRecO + TtRecR [7]) | binding result (TtRecO + TtRecR G169C [8])
GCAATGAAGTACGCTTGCCAGCTGCAGTCATGATTG [biotinylated 36-mer ssDNA] | no binding | no binding | binds | binds | binds | binds | binds more weakly | no binding | no binding | – | – | –
TTTTTTTTTTTTTTTTTTTTTTTTTTTTTTTTTTT [FAM-dT35] | – | – | – | – | – | – | – | – | – | no binding | binds | no binding

For at least one entry, the source does not settle the construct or the ends of the probe. For part of these data: Negatives hold for the conditions tested. For part of these data: At least one verdict rests on a figure or table, not on a statement of the authors. For part of these data: Where a protein sequence is shown, tags need not be part of it. For part of these data: Weaker means in comparison with the reference protein, sequence or condition of that experiment.
